Data as given in PubChem BioAssay AID1347423 (Functional Genomics Laboratory (NCATS/FGL), 2020).
Screen size: about 52,000 sequences; about 210 (0.4%) were called active.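 How the source made its calls: active means gene whose silencing raises cell survival under the drug, median off-target-corrected z-score across its silencing RNAs 2 or more; inactive means the rest.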 Some of the results follow.

Assay: Resistance to Poly (ADP-Ribose) Polymerase inhibitor: Gene Identification via Genome-wide siRNA Screen
Settings: mouse BRCA2 R2336H ES cells, olaparib, CellTiter-Glo viability; hits give high values
Method in brief: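 Mouse BRCA2 R2336H ES cells were reverse-transfected with siRNA (20 nM final), treated at 48 h with 500 nM olaparib, and read by CellTiter-Glo after 72 h. Scores: MAD-based z per siRNA, median per gene, seed off-target correction.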
For CCUCUGUCUAGAAUUACUATT against Kcnv2, the z-score was inactive: -0.171. In the case of GCUAAAACAAGUUUGAAGATT against Sntg2, the z-score is reported as inactive: 1.39. With CCUGAUGCCAGUUAACAGUTT against Dscr1 the z-score was inactive: -0.103. For GAGUGCUCUGAAAUAUUUUTT against Mup4, the z-score was inactive: 0.94. In the case of GCCAAUAUAUCUGUGGUGUTT against Olfr1186, the z-score is reported as inactive: -0.503. For CCGUGAAUGACUCGUCCUCTT against Dhrsx, the z-score was inactive: -0.0305. With GCAGAGCUUCUGCUCUUCUTT against Olfr527 the z-score was inactive: 0.133. With GGAGAAUCCAUUCAACUCUTT against Aoah the z-score was inactive: -0.819. For GGUACAGAAACAGUUAGUUTT against Olfr432, the z-score was inactive: -0.231. In the case of GCACGAGAAAAAUACUACGTT against Slc18a2, the z-score is reported as inactive: 0.674. In the case of GGAGAAAGUGAUUGACAUATT against Lpin2, the z-score is reported as inactive: -0.387. In the case of GUCUUUUUAUGGAUGUAUGTT against V1rc13, the z-score is reported as inactive: 0.137. For GCUCUGUUUUUAACCAUCCTT against Ccnt2, the z-score was inactive: -0.655. In the case of CCAUGUCAAACACCUUAGUTT against Zf, the z-score is reported as inactive: -0.665. For GGUAGUGCAACCAUCACGUTT against Pcdhb14, the z-score was inactive: 0.87. In the case of GCACAAGCGAUGGGUUAACTT against Fkbp1a, the z-score is reported as inactive: -2.67. In the case of GCCCUAUCUCAAGUCACUATT against Entpd3, the z-score is reported as inactive: 0.487. In the case of CGAUGAGGGCAGAUACCUATT against Pthlh, the z-score is reported as inactive: 0.366. In the case of GGAGAAACUGUAGUAAAUGTT against AI317237, the z-score is reported as inactive: 0.0411. In the case of GGGCAAGAAGAGAAACUAATT against Krtcap2, the z-score is reported as inactive: -0.392. For “CCAUAAAUGAGUCUUCAUUTT against 4930539E08Rik”, the z-score was inactive: 0.335. In the case of GCAAGAAAAACAUGAACUGTT against Klra17, the z-score is reported as inactive: 0.913. In the case of GGAGCUUUCUCAGAGGUGUTT against Camk1g, the z-score is reported as inactive: -1.76. For GGUGAAGACCAUCUUGACCTT against Clcnkb, the z-score was inactive: -0.162. In the case of GGAGCAAGUAAAAGUAUCUTT against Fpr-rs6, the z-score is reported as inactive: -1.26. With GGAGUCUAAAGGAAAUGUATT against Slc22a9 the z-score was inactive: -1.42. With CGGUAAAGUAGGGAAGAUGTT against Duox2 the z-score was inactive: 0.346. For GAACAUCAUCUCACACUCATT against Olfr874, the z-score was inactive: -0.051. With “GGUAGAAACCUCUACUGUCTT against A830020B06Rik” the z-score was inactive: 1.21. In the case of GGAACAGAACCUCAGACGATT against Itih5, the z-score is reported as inactive: 1.02. For GGGCUGUGAACACAAGUGUTT against Egfl3, the z-score was inactive: -1.02. In the case of CCCUGUUAAGGAAUGCAAATT against Chi3l1, the z-score is reported as inactive: -0.0256. For GGUAGUAGAGUCAAAAAAGTT against Top1, the z-score was inactive: -0.854. In the case of GCCCUUUUCAAGUGAUCAGTT against Pfkfb1, the z-score is reported as inactive: -1.08. In the case of GCCAAUGAUACCUUUGACATT against Mcoln1, the z-score is reported as inactive: -1.25. In the case of “GGAAGUAAGAGACUGUGAGTT against C330027I04Rik”, the z-score is reported as inactive: -1.2. In the case of GACUCCCACUUACACUCUCTT against Olfr1312, the z-score is reported as inactive: -1.08. For GGUUACAUGGAUUGAAGCUTT against Scrn3, the z-score was inactive: -0.0938. With GCAGAGAUAAAUUGGAAAGTT against Art2b the z-score was inactive: 0.181. In the case of CGGAACCAUACUUUCCUUATT against Olfr1162, the z-score is reported as inactive: 0.568. With GCAACAACCUGUGCCUACATT against Lgals1 the z-score was inactive: 0.408. For GGUUCUUGACCCUUUCACATT against Atcay, the z-score was inactive: 0.139. With GGGUGGUUAGAACAGCCACTT against Prss16 the z-score was inactive: 1.01. In the case of GGAAGUUCUGCACACAGCATT against Pthr1, the z-score is reported as inactive: -0.362. With GGAUCAAGGAGCAAGUGGUTT against Galgt1 the z-score was inactive: -1.78. In the case of GCUGGAUCCAUCUAAUUGCTT against Klhl12, the z-score is reported as inactive: 1.42. In the case of “GGCCCGUCACAUGAAGAAGTT against D830007E07Rik”, the z-score is reported as inactive: 0.398. With “GGUUGUCAAUCAUGUCUAUTT against 6330416L11Rik” the z-score was inactive: -0.0551. With “GGUGUAUGAGUUUGAGUUUTT against 9030625A04Rik” the z-score was inactive: 0.176. For CGACUCCAAGUGGUUUAAATT against Sema6b, the z-score was inactive: -0.416. For GCACCUAAAGUACGUUUCATT against Ube2n, the z-score was inactive: -2.89. With GCCACUGUCACUUUUGUACTT against Arl11 the z-score was inactive: 1.91. In the case of CCAAUUUGGCUUCACUUCCTT against Fprl1, the z-score is reported as inactive: 0.682. For “GCUGAACAGGUUACGAAAATT against 2010321M09Rik”, the z-score was inactive: -0.352. In the case of “GGAUGAGCUAAUAGCUAAGTT against G430022H21Rik”, the z-score is reported as inactive: 0.328. In the case of CCAUUAUUUUACGAAACCUTT against Rbm10, the z-score is reported as inactive: -0.898. For GGCUCUAAAGCAAUGGAUUTT against Bclp2, the z-score was inactive: 0.613. For GGGUGACAUUGUCUAUAUCTT against Sh3d4, the z-score was inactive: 0.3. For GGCAGAGAGAUGUUACAAGTT against Ccl8, the z-score was inactive: -0.328. With “GCGAAGCCAUGUUUCACCUTT against 1300018J18Rik” the z-score was inactive: -0.0663. With “CCCAGGACGAGACUUAAAUTT against B430218L07Rik” the z-score was inactive: 0.583. In the case of CCCUGAACGAAUAAUCGGCTT against Cbx3, the z-score is reported as inactive: -0.637. In the case of GGGAUUAAGUCACCUCUGUTT against Rab15, the z-score is reported as inactive: -1.69. With CCGAUUUUGCACCUCAGCUTT against Bphl the z-score was inactive: -0.252. In the case of GCUCUCCUGAAAUUAUGUATT against Wrb, the z-score is reported as inactive: 0.497. For GCUGAUCCUCUCCCUUCAUTT against Tas2r131, the z-score was inactive: -0.303.
